We go through one substance from paper PMC5438371.

Protein sequences, listed by entry. Tags and fused reporters are not part of them. Residues count along the entry.
UniProt P15209, residues 32-821: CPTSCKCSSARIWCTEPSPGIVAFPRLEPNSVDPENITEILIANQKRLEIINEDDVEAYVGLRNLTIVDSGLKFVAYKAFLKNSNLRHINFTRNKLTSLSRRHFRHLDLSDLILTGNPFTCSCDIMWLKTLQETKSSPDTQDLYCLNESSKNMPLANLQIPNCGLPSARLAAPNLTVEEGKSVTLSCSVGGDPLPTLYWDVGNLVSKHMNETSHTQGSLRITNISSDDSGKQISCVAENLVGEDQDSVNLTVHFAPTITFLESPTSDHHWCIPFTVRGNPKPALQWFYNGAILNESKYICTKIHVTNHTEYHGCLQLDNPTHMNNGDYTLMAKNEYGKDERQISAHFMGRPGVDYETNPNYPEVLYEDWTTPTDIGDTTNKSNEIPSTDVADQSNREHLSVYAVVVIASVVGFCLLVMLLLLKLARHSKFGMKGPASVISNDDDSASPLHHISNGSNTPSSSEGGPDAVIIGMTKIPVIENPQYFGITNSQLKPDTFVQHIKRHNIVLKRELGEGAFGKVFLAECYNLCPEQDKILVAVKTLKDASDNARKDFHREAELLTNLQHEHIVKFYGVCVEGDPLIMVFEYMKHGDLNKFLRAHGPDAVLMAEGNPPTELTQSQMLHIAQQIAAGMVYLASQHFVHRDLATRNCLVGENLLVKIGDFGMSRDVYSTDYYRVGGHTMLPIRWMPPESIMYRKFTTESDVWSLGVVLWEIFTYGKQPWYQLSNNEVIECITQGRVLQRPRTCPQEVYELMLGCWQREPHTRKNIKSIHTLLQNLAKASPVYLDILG
UniProt Q62421: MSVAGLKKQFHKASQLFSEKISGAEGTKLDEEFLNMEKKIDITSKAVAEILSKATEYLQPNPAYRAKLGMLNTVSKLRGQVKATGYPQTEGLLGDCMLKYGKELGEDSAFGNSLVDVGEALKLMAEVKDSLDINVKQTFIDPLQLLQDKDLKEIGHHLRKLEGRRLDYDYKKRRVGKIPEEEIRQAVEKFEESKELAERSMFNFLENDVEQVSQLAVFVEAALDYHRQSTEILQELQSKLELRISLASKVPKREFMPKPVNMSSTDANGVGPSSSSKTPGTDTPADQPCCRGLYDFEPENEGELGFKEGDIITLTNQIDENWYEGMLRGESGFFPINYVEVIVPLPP

For test [1], the target named is HA-tagged TrkB (UniProt P15209). As to the kind of experiment: condition: only cells without BDNF (0.1% BSA control); co-IP; HEK293 co-transfected with TrkB-HA and EndophilinA-GFP; cells without BDNF (0.1% BSA as a control for 20 minutes); lysis in 10 mM Tris-HCl pH 7.5, 150 mM NaCl, 0.5 mM EDTA, 0.5% NP-40; HA antibody on ProteinA magnetic beads, 4 hours; Western blot. (Immunoblotting shows a protein as a band on a membrane.)

Test [2] shares this target. The test is described as follows: co-IP; HEK293 co-transfected with TrkB-HA and EndophilinA-GFP; cells stimulated with 100 ng/ml BDNF for 20 minutes; lysis in 10 mM Tris-HCl pH 7.5, 150 mM NaCl, 0.5 mM EDTA, 0.5% NP-40; HA antibody on ProteinA magnetic beads, 4 hours; Western blot.

These are yes or no findings as the source states them, for the method shown. Binding seen in cells or lysates may run through a third protein. Some entries that bind do so weakly or less than the wild type.

For the substance “GFP-tagged EndophilinA3 (from UniProt Q62421 1-347)”, the binding entry in test [1] is “no binding”; in test [2] it was “binds”.
